Results deposited as PubChem BioAssay AID1224828 (NIAID, 2016)

Aim: 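Knock-downs that increase or decrease LPS-induced p65 nuclear translocation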 (primary screen)
Cells: mouse RAW264.7 G9 macrophage reporter cells (GFP-p65, Tnf promoter-mCherry)
Reagent: siRNA pool against mouse genes, 100 nM
Time to read-out: 2 days siRNA transfection, then 40 min LPS before fixation
Conditions: LPS (Salmonella minnesota R595) at 10 ng/ml
Measurement: 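Imaged p65 nuclear translocation ratio, normalised to the plate median, converted to robust z-scores and averaged across two replicates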
Reading the numbers: p65 translocation robust z-score: higher = more nuclear NF-kappaB p65 after LPS than the plate median; nuclear/cytoplasmic p65 ratio: higher = more nuclear NF-kappaB p65
Hit rule: 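Active if robust z is above 3.3 (negative regulators) or below -1.56, the Tlr4 control median (positive regulators); activity score 50 or more; control wells not called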
Calls: active = hit (p65 shift raised or lowered); inactive = no clear change
In all, the deposit lists about 17,000 reagents; this is a random part of them. 762 of them (4.5%) count as active. 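Active calls include both raised and lowered p65 entry, mostly lowered; wells with fewer than 50 cells lack a z-score.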 The raw values are shown without normalisation. Unmarked entries are inactive.

Cdca2 → p65 translocation robust z-score = 0.59; nuclear/cytoplasmic p65 ratio, rep 1 = 1.42; nuclear/cytoplasmic p65 ratio, rep 2 = 1.6; low cell count flag = enough cells to score
Fam229b → p65 translocation robust z-score = -1.47; nuclear/cytoplasmic p65 ratio, rep 1 = 1.28; nuclear/cytoplasmic p65 ratio, rep 2 = 1.15; low cell count flag = enough cells to score
Rims2 → p65 translocation robust z-score = -0.89; nuclear/cytoplasmic p65 ratio, rep 1 = 1.29; nuclear/cytoplasmic p65 ratio, rep 2 = 1.13; low cell count flag = enough cells to score
Pgbd5 → p65 translocation robust z-score = 0.44; nuclear/cytoplasmic p65 ratio, rep 1 = 1.45; nuclear/cytoplasmic p65 ratio, rep 2 = 1.29; low cell count flag = enough cells to score
Zfp451 → p65 translocation robust z-score = -0.01; nuclear/cytoplasmic p65 ratio, rep 1 = 1.54; nuclear/cytoplasmic p65 ratio, rep 2 = 1.25; low cell count flag = enough cells to score
Spaar → p65 translocation robust z-score = -0.06; nuclear/cytoplasmic p65 ratio, rep 1 = 1.25; nuclear/cytoplasmic p65 ratio, rep 2 = 1.57; low cell count flag = enough cells to score
Ctsb → p65 translocation robust z-score = -0.63; nuclear/cytoplasmic p65 ratio, rep 1 = 1.47; nuclear/cytoplasmic p65 ratio, rep 2 = 1.23; low cell count flag = enough cells to score
Noc3l → p65 translocation robust z-score = 0.08; nuclear/cytoplasmic p65 ratio, rep 1 = 1.5; nuclear/cytoplasmic p65 ratio, rep 2 = 1.82; low cell count flag = enough cells to score
Pars2 → p65 translocation robust z-score = -1.85 (active); nuclear/cytoplasmic p65 ratio, rep 1 = 1.43; nuclear/cytoplasmic p65 ratio, rep 2 = 1.39; low cell count flag = enough cells to score
Mga → p65 translocation robust z-score = -0.91; nuclear/cytoplasmic p65 ratio, rep 1 = 1.55; nuclear/cytoplasmic p65 ratio, rep 2 = 1.44; low cell count flag = enough cells to score
Rplp2 → p65 translocation robust z-score = -0.7; nuclear/cytoplasmic p65 ratio, rep 1 = 1.33; nuclear/cytoplasmic p65 ratio, rep 2 = 1.13; low cell count flag = enough cells to score
Hdac8 → p65 translocation robust z-score = -0.78; nuclear/cytoplasmic p65 ratio, rep 1 = 1.28; nuclear/cytoplasmic p65 ratio, rep 2 = 1.33; low cell count flag = enough cells to score
Mrc1 → p65 translocation robust z-score = 0.19; nuclear/cytoplasmic p65 ratio, rep 1 = 1.51; nuclear/cytoplasmic p65 ratio, rep 2 = 1.33; low cell count flag = enough cells to score
Or10aa3 → nuclear/cytoplasmic p65 ratio, rep 1 = 1.72; nuclear/cytoplasmic p65 ratio, rep 2 = 1.25; low cell count flag = fewer than 50 cells per well; well left out of scoring
Men1 → p65 translocation robust z-score = 0.23; nuclear/cytoplasmic p65 ratio, rep 1 = 1.48; nuclear/cytoplasmic p65 ratio, rep 2 = 1.36; low cell count flag = enough cells to score
Tlnrd1 → p65 translocation robust z-score = 1.28; nuclear/cytoplasmic p65 ratio, rep 1 = 1.62; nuclear/cytoplasmic p65 ratio, rep 2 = 1.5; low cell count flag = enough cells to score
Armh4 → nuclear/cytoplasmic p65 ratio, rep 1 = 1.29; nuclear/cytoplasmic p65 ratio, rep 2 = 1.49; low cell count flag = fewer than 50 cells per well; well left out of scoring
Cd14 → p65 translocation robust z-score = -1.21; nuclear/cytoplasmic p65 ratio, rep 1 = 1.27; nuclear/cytoplasmic p65 ratio, rep 2 = 1.25; low cell count flag = enough cells to score
Degs2 → nuclear/cytoplasmic p65 ratio, rep 1 = 1.65; nuclear/cytoplasmic p65 ratio, rep 2 = 1.75; low cell count flag = fewer than 50 cells per well; well left out of scoring
Sema4b → p65 translocation robust z-score = -0.34; nuclear/cytoplasmic p65 ratio, rep 1 = 1.36; nuclear/cytoplasmic p65 ratio, rep 2 = 1.21; low cell count flag = enough cells to score
D330005C11Rik → p65 translocation robust z-score = -0.86; nuclear/cytoplasmic p65 ratio, rep 1 = 1.43; nuclear/cytoplasmic p65 ratio, rep 2 = 1.44; low cell count flag = enough cells to score
Fubp1 → p65 translocation robust z-score = -0.2; nuclear/cytoplasmic p65 ratio, rep 1 = 1.68; nuclear/cytoplasmic p65 ratio, rep 2 = 1.33; low cell count flag = enough cells to score
Atp6v1c1 → p65 translocation robust z-score = -0.8; nuclear/cytoplasmic p65 ratio, rep 1 = 1.32; nuclear/cytoplasmic p65 ratio, rep 2 = 1.56; low cell count flag = enough cells to score
Aoah → p65 translocation robust z-score = 0.15; nuclear/cytoplasmic p65 ratio, rep 1 = 1.67; nuclear/cytoplasmic p65 ratio, rep 2 = 1.61; low cell count flag = enough cells to score
Pole3 → p65 translocation robust z-score = -0.33; nuclear/cytoplasmic p65 ratio, rep 1 = 1.33; nuclear/cytoplasmic p65 ratio, rep 2 = 1.16; low cell count flag = enough cells to score
Brcc3 → nuclear/cytoplasmic p65 ratio, rep 1 = 1.15; nuclear/cytoplasmic p65 ratio, rep 2 = 1.37; low cell count flag = fewer than 50 cells per well; well left out of scoring
Sinhcaf → p65 translocation robust z-score = 1.52; nuclear/cytoplasmic p65 ratio, rep 1 = 1.52; nuclear/cytoplasmic p65 ratio, rep 2 = 1.39; low cell count flag = enough cells to score

No new results follow: 2 of the entries above.
Armh4 → nuclear/cytoplasmic p65 ratio, rep 1 = 1.29; nuclear/cytoplasmic p65 ratio, rep 2 = 1.49; low cell count flag = fewer than 50 cells per well; well left out of scoring
Cd14 → p65 translocation robust z-score = -1.21; nuclear/cytoplasmic p65 ratio, rep 1 = 1.27; nuclear/cytoplasmic p65 ratio, rep 2 = 1.25; low cell count flag = enough cells to score
